In all, about 290,000 compounds went through this assay and about 110 (0.038%) were called active. The inconclusive results got no clear call from the source; some entries with a clear call stand among them for comparison. Calls come from the whole dose curve; as a rule, active = well fitted inhibition curve with a large enough effect in the polarisation, with a control signal flat (not every such curve was filed as active); inconclusive = small, poorly fitted or top-dose-only effect, or effect the other way, or a change in a side signal; inactive = no such curve, though single readings can be large or run the other way; the % refers to the polarisation. Potencies beside an inconclusive call are fits to weak or partial responses and may not hold up. “Side channel” marks fits to a control or component signal instead of the main read-out.
Each compound was assayed against Histone-lysine N-methyltransferase 2A (Homo sapiens) (UniProt Q03164) (assay: qHTS Fluorescence Polarization Assay for Inhibitors of MLL CXXC domain - DNA interaction). Conditions: MLL-CXXC / FITC-HOXA9 DNA fluorescence polarization; activity change, negative = inhibition: at 115 µM (top of the series).
Summary of the method: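 Fluorescence polarization: 7 uM MLL-CXXC (stock) preincubated 5 min with compounds, then 50 nM fluorescein-HOX-A9 DNA (stock) added; 30 min ambient. Buffer 50 mM Tris-HCl pH 7.5, 50 mM NaCl, 1 mM DTT, 0.05% BSA.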
Potency is the fitted concentration of half-maximal effect.

The chains behind the UniProt entries cited, without tags or fusion partners.
UniProt Q03164, whole entry, looked up: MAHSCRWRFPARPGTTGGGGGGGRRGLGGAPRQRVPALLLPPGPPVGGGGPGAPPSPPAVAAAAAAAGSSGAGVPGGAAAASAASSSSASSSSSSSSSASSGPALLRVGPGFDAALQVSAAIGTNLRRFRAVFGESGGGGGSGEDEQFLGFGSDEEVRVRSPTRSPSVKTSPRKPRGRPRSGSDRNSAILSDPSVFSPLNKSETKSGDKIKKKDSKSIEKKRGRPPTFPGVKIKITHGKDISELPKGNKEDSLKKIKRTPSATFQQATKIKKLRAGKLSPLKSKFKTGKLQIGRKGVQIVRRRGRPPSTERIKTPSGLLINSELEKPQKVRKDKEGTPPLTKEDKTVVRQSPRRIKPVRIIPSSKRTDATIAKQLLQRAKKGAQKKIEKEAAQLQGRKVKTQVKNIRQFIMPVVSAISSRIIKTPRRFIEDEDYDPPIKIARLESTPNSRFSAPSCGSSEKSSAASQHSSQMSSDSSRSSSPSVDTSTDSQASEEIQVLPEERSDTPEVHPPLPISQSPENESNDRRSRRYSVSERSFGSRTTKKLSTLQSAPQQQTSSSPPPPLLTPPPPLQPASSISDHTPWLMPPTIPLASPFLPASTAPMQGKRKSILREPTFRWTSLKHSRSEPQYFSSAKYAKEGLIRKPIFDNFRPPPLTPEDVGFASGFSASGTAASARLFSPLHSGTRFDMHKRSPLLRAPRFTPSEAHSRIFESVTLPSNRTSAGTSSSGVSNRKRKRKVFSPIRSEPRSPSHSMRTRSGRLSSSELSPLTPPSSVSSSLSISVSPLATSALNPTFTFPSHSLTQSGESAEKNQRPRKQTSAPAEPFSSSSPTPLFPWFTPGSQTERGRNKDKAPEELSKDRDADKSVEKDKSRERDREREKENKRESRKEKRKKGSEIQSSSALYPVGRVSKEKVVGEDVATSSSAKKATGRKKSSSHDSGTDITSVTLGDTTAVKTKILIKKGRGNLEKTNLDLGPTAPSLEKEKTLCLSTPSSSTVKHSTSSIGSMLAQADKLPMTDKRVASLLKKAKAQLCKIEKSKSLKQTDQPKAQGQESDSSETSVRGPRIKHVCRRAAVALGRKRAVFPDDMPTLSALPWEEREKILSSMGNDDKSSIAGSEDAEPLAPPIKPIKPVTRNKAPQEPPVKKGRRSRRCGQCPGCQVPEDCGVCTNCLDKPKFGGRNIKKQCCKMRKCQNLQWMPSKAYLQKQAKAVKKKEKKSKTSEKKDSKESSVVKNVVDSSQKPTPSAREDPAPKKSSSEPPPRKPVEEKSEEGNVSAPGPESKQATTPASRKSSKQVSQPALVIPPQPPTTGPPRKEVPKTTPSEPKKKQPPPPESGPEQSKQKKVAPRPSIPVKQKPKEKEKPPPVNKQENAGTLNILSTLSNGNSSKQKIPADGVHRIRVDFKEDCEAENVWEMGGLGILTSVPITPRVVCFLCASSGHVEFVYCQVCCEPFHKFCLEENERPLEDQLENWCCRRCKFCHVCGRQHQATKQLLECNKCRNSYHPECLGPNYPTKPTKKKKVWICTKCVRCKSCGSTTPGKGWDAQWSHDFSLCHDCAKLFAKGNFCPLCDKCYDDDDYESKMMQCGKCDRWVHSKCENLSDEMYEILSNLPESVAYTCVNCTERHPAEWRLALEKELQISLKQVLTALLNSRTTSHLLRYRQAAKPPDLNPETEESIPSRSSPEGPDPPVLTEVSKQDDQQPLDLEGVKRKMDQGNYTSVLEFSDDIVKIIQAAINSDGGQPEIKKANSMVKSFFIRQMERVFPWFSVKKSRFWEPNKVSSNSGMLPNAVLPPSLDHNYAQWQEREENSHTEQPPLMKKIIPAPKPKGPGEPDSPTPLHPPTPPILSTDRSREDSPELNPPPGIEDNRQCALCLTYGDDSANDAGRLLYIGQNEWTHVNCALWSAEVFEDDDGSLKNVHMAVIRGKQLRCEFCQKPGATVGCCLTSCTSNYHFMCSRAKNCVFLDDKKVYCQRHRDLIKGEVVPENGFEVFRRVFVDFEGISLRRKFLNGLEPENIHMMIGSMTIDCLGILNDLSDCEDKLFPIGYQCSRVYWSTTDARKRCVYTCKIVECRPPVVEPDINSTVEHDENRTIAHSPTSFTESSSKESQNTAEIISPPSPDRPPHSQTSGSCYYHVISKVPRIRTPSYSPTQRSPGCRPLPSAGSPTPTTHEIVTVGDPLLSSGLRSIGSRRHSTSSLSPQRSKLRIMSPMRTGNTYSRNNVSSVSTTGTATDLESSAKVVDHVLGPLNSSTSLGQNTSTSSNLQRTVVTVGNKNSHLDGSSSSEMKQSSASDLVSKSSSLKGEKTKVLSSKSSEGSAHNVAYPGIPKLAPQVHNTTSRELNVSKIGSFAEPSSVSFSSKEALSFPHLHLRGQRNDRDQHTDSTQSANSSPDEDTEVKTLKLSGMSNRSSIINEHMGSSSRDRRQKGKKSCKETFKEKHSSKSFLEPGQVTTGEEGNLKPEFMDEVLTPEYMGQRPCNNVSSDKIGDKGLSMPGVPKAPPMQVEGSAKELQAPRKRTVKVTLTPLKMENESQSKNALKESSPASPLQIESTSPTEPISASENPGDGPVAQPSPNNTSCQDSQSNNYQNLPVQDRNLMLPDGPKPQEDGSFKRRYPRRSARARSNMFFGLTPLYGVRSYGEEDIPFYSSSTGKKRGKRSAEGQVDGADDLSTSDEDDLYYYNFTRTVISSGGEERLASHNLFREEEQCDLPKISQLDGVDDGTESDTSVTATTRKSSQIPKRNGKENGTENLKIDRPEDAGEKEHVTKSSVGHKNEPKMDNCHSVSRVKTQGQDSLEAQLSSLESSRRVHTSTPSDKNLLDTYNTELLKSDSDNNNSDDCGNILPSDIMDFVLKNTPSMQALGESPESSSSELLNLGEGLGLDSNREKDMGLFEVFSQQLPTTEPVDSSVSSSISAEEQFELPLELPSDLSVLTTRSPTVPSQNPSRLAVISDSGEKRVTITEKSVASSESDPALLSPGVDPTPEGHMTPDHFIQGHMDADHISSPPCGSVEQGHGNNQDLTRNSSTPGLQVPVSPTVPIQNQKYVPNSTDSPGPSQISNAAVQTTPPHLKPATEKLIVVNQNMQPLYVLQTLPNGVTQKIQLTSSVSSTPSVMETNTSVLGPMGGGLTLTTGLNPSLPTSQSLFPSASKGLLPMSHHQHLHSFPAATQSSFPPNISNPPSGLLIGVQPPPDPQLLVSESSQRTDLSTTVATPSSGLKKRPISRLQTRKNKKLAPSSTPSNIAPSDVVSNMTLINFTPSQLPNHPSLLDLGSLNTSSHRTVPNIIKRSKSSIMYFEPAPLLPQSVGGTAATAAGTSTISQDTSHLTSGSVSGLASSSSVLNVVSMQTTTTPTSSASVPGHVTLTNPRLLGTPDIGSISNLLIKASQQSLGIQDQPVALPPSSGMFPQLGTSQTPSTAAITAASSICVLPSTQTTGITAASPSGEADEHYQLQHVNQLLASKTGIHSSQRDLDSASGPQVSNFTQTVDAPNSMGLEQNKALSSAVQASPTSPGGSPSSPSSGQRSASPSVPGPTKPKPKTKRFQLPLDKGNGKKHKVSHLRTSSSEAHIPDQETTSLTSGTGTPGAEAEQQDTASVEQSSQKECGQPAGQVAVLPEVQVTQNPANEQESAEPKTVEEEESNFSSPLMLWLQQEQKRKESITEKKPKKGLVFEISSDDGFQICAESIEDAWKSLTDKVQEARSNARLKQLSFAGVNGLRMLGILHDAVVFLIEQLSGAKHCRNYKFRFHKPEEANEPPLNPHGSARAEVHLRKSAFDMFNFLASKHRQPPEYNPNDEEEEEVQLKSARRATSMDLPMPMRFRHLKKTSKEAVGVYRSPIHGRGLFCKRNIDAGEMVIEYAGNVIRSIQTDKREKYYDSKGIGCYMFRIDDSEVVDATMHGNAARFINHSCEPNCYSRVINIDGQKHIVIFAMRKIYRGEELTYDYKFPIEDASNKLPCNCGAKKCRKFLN

Row | SMILES | Potency | activity change, negative = inhibition
1 | CC(C)(C)c1nnc(N/N=C/c2ccccc2O)n(N)c1=O | inconclusive: 3.55 µM [quencher, side channel, full curve] | –
2 | CSCCC(NC(=O)OC(C)(C)C)C(=O)Oc1ccc2c(=O)c(-c3ccc4c(c3)OCCO4)coc2c1 (stereo not given) | – | inactive: 8.49%
3 | O=C(CN(c1ccccc1)S(=O)(=O)c1ccc(Cl)cc1)Nc1ccccc1C(=O)N1CCCC1 | inconclusive: 1.41 µM [quencher, side channel, full curve, poor fit] | –
4 | FC(F)(F)c1cccc(-n2c(Cn3nnc4ccccc43)n[nH]c2=S)c1 | inconclusive: 31.6 µM [quencher, side channel, single point] | –
5 | CCn1c(CSc2ncn[nH]2)nc2cc(C(=O)O)ccc21 | inconclusive: 31.6 µM [inhibitor, partial curve] | –
6 | COc1ccc(/C=N/NC(=O)c2ccc(Br)cc2)cc1CN1CCOCC1 | – | inactive: 59.7%
7 | COc1ccc(N2CCN(C(=O)c3cc4cc(Cl)ccc4[nH]3)CC2)cc1 | – | inactive: -14.2%
8 | CCCNCc1cc(OC)c(OCC(=O)Nc2ccccc2)cc1Br | inconclusive: 70.8 µM [inhibitor, single point] | –
9 | COc1ccc(CN(Cc2cc3cc(C)ccc3[nH]c2=O)C(=O)N(C)C)cc1 | – | inactive: -4.96%
10 | Nc1ccc(OCCCc2c(N)nc(N)nc2N)cc1 | inconclusive: 39.8 µM [quencher, side channel, partial curve, poor fit] | –
11 | CN(C)c1ccnc2sc(C(=O)c3ccc(Br)cc3)c(N)c12 | inconclusive: 63.1 µM [fluorescent, side channel, single point] | –
12 | COc1ccc(-c2nc(-c3cccs3)c(-c3cccs3)[nH]2)cc1O | inconclusive: 70.8 µM [quencher, side channel, single point] | –
13 | CCOC(=O)C1Nc2ccc(C(=O)O)cc2C2C=CCC12 (stereo not given) | inconclusive: 63.1 µM [inhibitor, single point] | –
14 | COc1ccc(NC(=O)CN(C2CCCCC2)S(C)(=O)=O)cc1OC | – | inactive: 5.97%
15 | COc1cc2c(cc1OC)C(c1cc(OC)c(OC)c(OC)c1)NCC2 (stereo not given) | inconclusive: 7.08 µM [fluorescent, side channel, full curve, poor fit] | –
16 | COC(=O)c1[nH]c(C)c(/C(O)=C2\C(=O)C(=O)N(CCN3CCOCC3)C2c2cccs2)c1C (stereo not given) | – | inactive: 4.49%
17 | COc1cc(N=Nc2cccc(S(N)(=O)=O)c2)c2ccccc2c1N | – | inactive: 195%
18 | COc1ccc2nc(-n3c(O)c(C4=c5ccccc5=NC4=O)[nH]c3=S)sc2c1 | inconclusive: 8.91 µM [quencher, side channel, full curve] | –
19 | O=C(CN1C(=O)NC2(CCCC2)C1=O)Nc1cc(S(=O)(=O)N2CCOCC2)ccc1OCC(F)(F)F | inconclusive: 7.94 µM [quencher, side channel, single point] | –
20 | COc1cc(C(=S)N2CCOCC2)cc(OC)c1OS(=O)(=O)c1ccc(C)cc1 | – | inactive: 2.42%

Row | SMILES | Potency | activity change, negative = inhibition
21 | Cc1ccc(C(C(=O)NC(C)(C)C)N(CC2CCCO2)C(=O)CCC(=O)Nc2ccccn2)cc1 (stereo not given) | inconclusive: 44.7 µM [quencher, side channel, single point] | –
22 | CN(C)c1ccc(C(=O)/C=C/c2ccccc2)cc1 | inconclusive: 35.5 µM [fluorescent, side channel, single point] | –
23 | Cc1cccc(NC(=O)CSCC(=O)Nc2cc(S(=O)(=O)N3CCOCC3)ccc2N2CCCC2)c1 | inconclusive: 12.6 µM [fluorescent, side channel, single point] | –
24 | Cc1ccc(SCCN2CCN(Cc3ccccc3)CC2)cc1 | inconclusive: 39.8 µM [inhibitor, single point] | –
25 | COc1cc(/C=C/c2[nH]c(=O)[nH]c(=O)c2[N+](=O)[O-])cc(OC)c1O | inconclusive: 39.8 µM [inhibitor, single point] | –
26 | O=C(N/N=C/c1c(O)n(-c2ccc(Cl)cn2)c(=O)c2ccccc12)c1ccncc1 | inconclusive: 39.8 µM [fluorescent, side channel, partial curve] | –
27 | CCOC(=O)C1CCCN(C(=S)NC(=O)/C=C/c2ccc(F)cc2)C1 (stereo not given) | inconclusive: 56.2 µM [quencher, side channel, single point] | –
28 | O=C(O)c1ccccc1C(=O)NCc1ccc(F)cc1 | inconclusive: 6.31 µM [inhibitor, single point] | –
29 | CCOC(=O)C1(CCc2ccccc2)CCN(Cc2ccc(OC)cc2)CC1 | – | inactive: -4.58%
30 | CC(=O)N1CCN(C(=O)CSc2nnc(C)n2-c2ccccc2)CC1 | inconclusive: 8.91 µM [fluorescent, side channel, single point] | –
31 | COc1ccccc1N=Cc1c(C)c(C#N)c2[nH]c3ccccc3n2c1=O | inconclusive: 63.1 µM [fluorescent, side channel, single point] | –
32 | O=C(NCc1ccco1)c1ccc(Cl)c(S(=O)(=O)Nc2ccccc2)c1 | – | inactive: 4.35%
33 | CC1=NN(c2ccccc2)C(=O)/C1=C\c1sccc1C | inconclusive: 15.8 µM [inhibitor, partial curve] | –
34 | CC1=C(C)CC(C(=O)Nc2nc(C)cs2)C(C(=O)O)C1 (stereo not given) | – | inactive: -7.66%
35 | COC(=O)c1ccccc1NC(=O)Cc1nc(-c2ccccc2)sc1-c1ccc(C)cc1 | inconclusive: 70.8 µM [fluorescent, side channel, single point] | –
36 | CCC(=O)Nc1cccc(NC(=O)c2ccccc2Br)c1 | inconclusive: 89.1 µM [inhibitor, single point] | –
37 | CCOc1ccc(/C=N/NC(=O)c2cc3c(OC)cc(OC)c(OC)c3[nH]2)cc1 | inconclusive: 35.5 µM [fluorescent, side channel, partial curve] | –
38 | Nc1nc(NCCc2ccccc2)nc(NCCO)c1[N+](=O)[O-] | inconclusive: 15.8 µM [fluorescent, side channel, single point] | –
39 | COc1ccc(C(=O)CN2CCN(S(=O)(=O)c3cccc([N+](=O)[O-])c3)CC2)cc1OC | inconclusive: 25.1 µM [fluorescent, side channel, partial curve] | –
40 | CCc1ccccc1NC(=O)c1ccc(CN2CCC(Cc3ccccc3)CC2)cc1 | inconclusive: 31.6 µM [quencher, side channel, partial curve] | –

Some values from the list.
CN(C)c1ccc(C(=O)/C=C/c2ccccc2)cc1 – Potency: inconclusive: 35.5 µM [fluorescent, side channel, single point]
CCc1ccccc1NC(=O)c1ccc(CN2CCC(Cc3ccccc3)CC2)cc1 – Potency: inconclusive: 31.6 µM [quencher, side channel, partial curve]

Going on with the list:

Row | SMILES | Potency | activity change, negative = inhibition
41 | Cc1nc(SCC(=O)NCc2ccccc2)c2oc3ccccc3c2n1 | inconclusive: 70.8 µM [fluorescent, side channel, single point] | –
42 | COc1ccc(C(=O)Nc2ccc(S(=O)(=O)NC(C)(C)C)cc2)cc1[N+](=O)[O-] | inconclusive: 14.1 µM [inhibitor, single point] | –
43 | Cc1nc(NC(=O)c2ccccc2)sc1Cc1ccc2c(c1)OCO2 | – | inactive: 13.2%
44 | Cc1cccc(N(CC(=O)NCc2ccccc2)C(=O)CCC(=O)Nc2nccs2)c1 | inconclusive: 89.1 µM [inhibitor, single point] | –
45 | CCOc1cc(/C=C2\C(=O)ON=C2c2ccccc2)ccc1OC | inconclusive: 35.5 µM [fluorescent, side channel, single point] | –
46 | Cc1ccc(S(=O)(=O)n2cnc3ccccc32)cc1[N+](=O)[O-] | inconclusive: 70.8 µM [fluorescent, single point] | –
47 | COc1ccc(-c2cc(C(F)(F)F)nc(S(=O)(=O)CCCC(=O)Nc3cccc(O)c3)n2)cc1OC | inconclusive: 20 µM [quencher, side channel, partial curve] | –
48 | CCOC(=O)C1CCN(S(=O)(=O)c2ccc(C(C)=O)cc2)CC1 | – | inactive: -13.3%
49 | CCN(CCC#N)c1ccc(/C=N/Nc2nc(C)cc(=O)[nH]2)c(C)c1 | inconclusive: 15.8 µM [fluorescent, side channel, partial curve] | –
51 | O=C(O)/C=C/c1ccc([N+](=O)[O-])o1 | inconclusive: 35.5 µM [inhibitor, single point] | –
52 | COc1ccc(N=Cc2c(C)[nH][nH]c2=O)cc1 | inconclusive: 70.8 µM [fluorescent, side channel, single point] | –
53 | C/C=C(\C)C(=O)OC1c2c(ccc3ccc(=O)oc23)OC(C)(C)C1OC(C)=O (stereo not given) | – | inactive: -1.34%
54 | Cc1ccc(Nc2nc(-c3sc(NC(=O)c4ccccc4)nc3C)cs2)cc1 | inconclusive: 15.8 µM [inhibitor, single point] | –
55 | O=C1c2ccccc2C2(c3ccccc3)N1CCN2C(=O)C(Cl)(Cl)Cl (stereo not given) | inconclusive: 31.6 µM [fluorescent, side channel, partial curve] | –
56 | CC(OC(=O)c1ccccc1CCc1ccccc1)C(N)=O (stereo not given) | inconclusive: 5.62 µM [quencher, side channel, full curve, poor fit] | –
57 | CCN(CC)c1ccc(/C=C(\C#N)C(=O)NCc2ccco2)cc1 | inconclusive: 44.7 µM [fluorescent, side channel, partial curve] | –
58 | Cc1nc(SCC(=O)N2CC(=O)Nc3ccccc32)c2c(C)c(C)sc2n1 | inconclusive: 31.6 µM [inhibitor, partial curve] | –
59 | CSc1nc2sccc2c(=O)[nH]1 | inconclusive: 1.12 µM [fluorescent, side channel, full curve] | –
60 | O=C(NCc1ccc2c(c1)OCO2)c1ccc(S(=O)(=O)N2CCOCC2)cc1 | inconclusive: 10 µM [fluorescent, side channel, single point] | –

Source: PubChem BioAssay AID2662 (National Center for Advancing Translational Sciences (NCATS), 2010)
